Cell number after 72 h of treatment

From a melanoma drug combination screen (doi:10.1371/journal.pone.0140310); values rounded.

Drug key:
GSK0660 (5000 nM): COC(=O)c1sccc1S(=O)(=O)Nc1ccc(Nc2ccccc2)cc1OC
ZM336372 (10000 nM): Cc1ccc(NC(=O)c2cccc(N(C)C)c2)cc1NC(=O)c1ccc(O)cc1
GW441756 (2000 nM): Cn1cc(/C=C2\C(=O)Nc3cccnc32)c2ccccc21
OSI-906 (2000 nM): C[C@]1(O)C[C@@H](c2nc(-c3ccc4ccc(-c5ccccc5)nc4c3)c3c(N)nccn32)C1
palbociclib (200 nM): CC(=O)c1c(C)c2cnc(Nc3ccc(N4CCNCC4)cn3)nc2n(C2CCCC2)c1=O
L-779450 (1000 nM): Oc1cc(-c2nc(-c3ccccc3)[nH]c2-c2ccncc2)ccc1Cl
SU6656 (2000 nM): CN(C)S(=O)(=O)c1ccc2c(c1)/C(=C/c1cc3c([nH]1)CCCC3)C(=O)N2
CP-690550 (5000 nM): C[C@@H]1CCN(C(=O)CC#N)C[C@@H]1N(C)c1ncnc2[nH]ccc12
indole-3-carbinol (4000 nM): OCc1c[nH]c2ccccc12
KU-55933 (5000 nM): O=c1cc(-c2cccc3c2Sc2ccccc2S3)oc(N2CCOCC2)c1
RKI-983 (2000 nM): C[C@@H](N)c1ccc(C(=O)Nc2ccnc3[nH]ccc23)cc1
ruxolitinib (5000 nM): N#CC[C@H](C1CCCC1)n1cc(-c2ncnc3[nH]ccc23)cn1
GSK650394 (800 nM): O=C(O)c1ccc(-c2c[nH]c3ncc(-c4ccccc4)cc23)cc1C1CCCC1
tipifarnib (50 nM): Cn1cncc1[C@@](N)(c1ccc(Cl)cc1)c1ccc2c(c1)c(-c1cccc(Cl)c1)cc(=O)n2C
vatalanib (10000 nM): Clc1ccc(Nc2nnc(Cc3ccncc3)c3ccccc23)cc1
NVP-BEZ235 (20 nM): Cn1c(=O)n(-c2ccc(C(C)(C)C#N)cc2)c2c3cc(-c4cnc5ccccc5c4)ccc3ncc21
selumetinib (75 nM): Cn1cnc2c(F)c(Nc3ccc(Br)cc3Cl)c(C(=O)NOCCO)cc21
embelin (6000 nM): CCCCCCCCCCCC1=C(O)C(=O)C=C(O)C1=O
temozolomide (10000 nM): Cn1nnc2c(C(N)=O)ncn2c1=O
KU-0063794 (100 nM): COc1ccc(-c2ccc3c(N4CCOCC4)nc(N4C[C@@H](C)O[C@@H](C)C4)nc3n2)cc1CO

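Human melanoma cells were exposed to two drugs together for 72 h in 1,536-well plates and read by automated microscopy after fixing and staining. Values are the number of DAPI-stained nuclei as a percentage of the DMSO control: 100 is no effect, lower means fewer cells. Every drug was used at one fixed concentration, the higher of two screened. No replicate spread is given; individual values may be noisy.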 This is part of the screen, not chosen by result. An entry leaves out what has no value listed here. A dash means that no value is listed here.

Drugs,WM3619,501mel,A375,IPC-298,COLO 829,COLO 800,WM451Lu,A2058
temozolomide + RKI-983,112,-,102,-,69.5,76.6,85.6,36.0
indole-3-carbinol + GSK650394,72.7,-,-,-,-,-,79.3,-
vatalanib + L-779450,57.7,-,-,-,57.3,68.8,53.9,-
indole-3-carbinol + CP-690550,92.4,-,-,-,-,-,102,-
GW441756 + tipifarnib,78.7,-,-,-,102,85.0,70.9,-
OSI-906 + RKI-983,68.1,-,-,-,-,-,85.7,-
GSK0660 + KU-55933,-,108,143,84.8,134,104,-,119
RKI-983 + ruxolitinib,102,-,-,-,106,71.9,72.1,-
NVP-BEZ235 + GSK0660,59.4,-,-,-,86.4,78.1,76.4,-
CP-690550 + temozolomide,116,-,-,-,107,72.2,91.3,-
SU6656 + GSK0660,104,-,-,-,60.0,58.7,82.6,-
ZM336372 + embelin,79.1,-,-,-,-,-,105,-
CP-690550 + GSK650394,73.7,-,-,-,-,-,108,-
tipifarnib + embelin,-,-,-,-,80.1,83.5,-,-
GW441756 + ZM336372,-,-,-,-,108,65.1,-,-
tipifarnib + SU6656,63.4,-,-,-,-,-,41.7,-
RKI-983 + indole-3-carbinol,114,-,138,-,101,137,72.9,57.0
L-779450 + GSK0660,-,-,83.3,81.0,90.5,83.1,-,90.5
palbociclib + KU-55933,67.3,-,-,-,83.8,82.7,45.8,-
GW441756 + vatalanib,49.1,-,-,-,86.5,79.4,106,-
temozolomide + tipifarnib,105,-,-,-,-,-,80.4,-
KU-55933 + vatalanib,53.8,-,-,-,62.0,60.3,96.0,-
tipifarnib + OSI-906,82.7,-,-,-,73.7,46.0,57.5,-
selumetinib + GSK0660,-,-,-,-,-,-,66.0,-
KU-0063794 + NVP-BEZ235,75.1,-,-,-,-,-,87.8,-
tipifarnib + GSK0660,85.0,-,-,-,-,-,79.4,-
SU6656 + NVP-BEZ235,72.0,-,-,-,-,-,72.7,-
palbociclib + L-779450,46.0,-,-,-,-,-,54.6,-
CP-690550 + GSK0660,93.6,-,-,-,111,94.8,135,-

Repeated from the top, 3 entries:

* temozolomide + RKI-983 : WM3619: 112; A375: 102; COLO 829: 69.5; COLO 800: 76.6; WM451Lu: 85.6; A2058: 36.0
* indole-3-carbinol + GSK650394 : WM3619: 72.7; WM451Lu: 79.3
* vatalanib + L-779450 : WM3619: 57.7; COLO 829: 57.3; COLO 800: 68.8; WM451Lu: 53.9